# The supplement of paper PMC11542785
# Counter-ions that a name gives are not always drawn. The list shows a part of the results. Repeats are few or missing, and single values can be far off. Bridge positions count the residues as written; N and C are the ends. Square brackets hold non-standard residues; d marks the D form. Peptide text beside a SMILES is read from it. * marks the point of attachment. Ileψ(thiazoline)Cys = CC[C@H](C)[C@H](N)C1=N[C@H](C(=O)*)CS1; dOrn = NCCC[C@@H](N)C(=O)O; NHCH2CH2OH = OCCN*; For = O=C*
# Tested on: Drosophila melanogaster DPAGT1 (Alg7) RNAi eye model
# Assay: eye size Z-score vs DMSO-treated DPAGT1 model flies; higher = larger eye (suppression of DPAGT1 phenotype)
# Conditions: 5 uM
structure (smiles),measurement,setting,value
"C[C@H]1C[C@@H]2[C@H]([C@@H](O)C[C@@]3(C)[C@H]2CC[C@]3(O)C(=O)CO)[C@@]2(C)C=CC(=O)C=C12 [Methylprednisolone, 6-alpha]",eye size Z-score,,-0.6
CCCNCC(O)COc1ccccc1C(=O)CCc1ccccc1 (stereo not given) [Propafenone hydrochloride],eye size Z-score,,0.82
NC(=O)C(c1ccccc1)(c1ccccc1)[C@@H]1CCN(CCc2ccc3c(c2)CCO3)C1 [Darifenacin hydrobromide],eye size Z-score,,0.73
COc1ccccc1OCC(O)CN1CCN(CC(=O)Nc2c(C)cccc2C)CC1 (stereo not given) [Ranolazine],eye size Z-score,,0.71
COc1cc([C@@H]2c3cc4c(cc3[C@@H](O[C@@H]3O[C@@H]5CO[C@@H](C)O[C@H]5[C@H](O)[C@H]3O)[C@H]3COC(=O)[C@H]23)OCO4)cc(OC)c1O [Etoposide],eye size Z-score,,0.12
COc1ccc(C2CNC(=O)C2)cc1OC1CCCC1 (stereo not given) [Rolipram],eye size Z-score,,1.11
CC(C)C[C@@H](NC(=O)[C@H](C)NC(=O)CNC(=O)[C@@H](NC=O)C(C)C)C(=O)N[C@@H](C)C(=O)N[C@@H](C(=O)N[C@H](C(=O)N[C@H](C(=O)N[C@@H](Cc1c[nH]c2ccccc12)C(=O)N[C@H](CC(C)C)C(=O)N[C@@H](Cc1c[nH]c2ccccc12)C(=O)N[C@H](CC(C)C)C(=O)N[C@@H](Cc1c[nH]c2ccccc12)C(=O)N[C@H](CC(C)C)C(=O)N[C@@H](Cc1c[nH]c2ccccc12)C(=O)NCCO)C(C)C)C(C)C)C(C)C [Gramicidin] (For-VGA[dL]A[dV]VVW[dL]W[dL]W[dL]W-NHCH2CH2OH),eye size Z-score,,-0.08
Cc1c(O)c(=O)ccn1C [Deferiprone],eye size Z-score,,0.21
c1ccc([C@H]2CN3CCSC3=N2)cc1 [Levamisole hydrochloride],eye size Z-score,,-0.37
CCC(=O)O[C@]1(C(=O)CCl)[C@@H](C)C[C@H]2[C@@H]3CCC4=CC(=O)C=C[C@]4(C)[C@@]3(F)[C@@H](O)C[C@@]21C [Clobetasol propionate],eye size Z-score,,-0.26
CC(C)[C@H](N)C(=O)OCC(CO)OCn1cnc2c(=O)nc(N)[nH]c21 (stereo not given in full) [Valganciclovir hydrochloride],eye size Z-score,,-0.36
O=C1OCCN1/N=C/c1ccc([N+](=O)[O-])o1 [Furazolidone],eye size Z-score,,-1.4
CCOC(=O)[C@H](CCc1ccccc1)N[C@H]1CS[C@H](c2cccs2)CN(CC(=O)O)C1=O [Temocapril hydrochloride],eye size Z-score,,0.25
CCCCc1cc2ccccc2c(OCCN(C)C)n1 [Dimethisoquin hydrochloride],eye size Z-score,,0.21
CC(C(=O)O)c1ccc2c(c1)[nH]c1ccc(Cl)cc12 (stereo not given) [Carprofen],eye size Z-score,,0.16
Cc1cccc(C)c1NC(=O)C(C)N (stereo not given) [Tocainide hydrochloride],eye size Z-score,female,0.09
Cc1ccccc1C(=O)Nc1ccc(C(=O)N2CCCC(O)c3cc(Cl)ccc32)c(C)c1 (stereo not given) [Tolvaptan],eye size Z-score,,0.61
Cc1cccc(C)c1NC(=O)CC12CCCN1CCC2 [Pilsicainide Hydrochloride],eye size Z-score,,0.5
Nc1nc2[nH]cnc2c(=S)[nH]1 [Tioguanine],eye size Z-score,,1.53
CC(C)c1cc2c(cc1S(=O)(=O)O)[C@@]1(C)CCC[C@@](C)(C(=O)O)[C@@H]1CC2 [Ecabet sodium],eye size Z-score,,0.02
CN(C)C(=O)C(CCN1CCC(O)(c2ccc(Cl)cc2)CC1)(c1ccccc1)c1ccccc1 [Loperamide hydrochloride],eye size Z-score,,0.1
O=C(OCC(O)CO)c1ccccc1Nc1ccnc2cc(Cl)ccc12 (stereo not given) [Glafenine hydrochloride],eye size Z-score,,-1.09
NC(=O)c1cn(Cc2c(F)cccc2F)nn1 [Rufinamide],eye size Z-score,,0.69
CC(C(=O)O)c1ccc(-c2ccccc2)c(F)c1 (stereo not given) [Flurbiprofen],eye size Z-score,,-0.88
C[C@H]1O[C@@H](O[C@H]2[C@@H](O)C[C@H](O[C@H]3[C@@H](O)C[C@H](O[C@H]4CC[C@@]5(C)[C@H](CC[C@@H]6[C@@H]5C[C@@H](O)[C@]5(C)[C@@H](C7=CC(=O)OC7)CC[C@]65O)C4)O[C@@H]3C)O[C@@H]2C)C[C@H](O)[C@@H]1O [Digoxin],eye size Z-score,,0.73
COc1cc([S+](C)[O-])ccc1-c1nc2cccnc2[nH]1 (stereo not given) [Sulmazole],eye size Z-score,,0.1
NC[C@@H]1O[C@H](O[C@H]2[C@@H](O)[C@H](O[C@@H]3[C@@H](O)[C@H](N)C[C@H](N)[C@H]3O[C@H]3O[C@H](CO)[C@@H](O)[C@H](O)[C@H]3N)O[C@@H]2CO)[C@H](N)[C@@H](O)[C@@H]1O [Paromomycin sulfate],eye size Z-score,,0.19
Nc1nc(CC(=O)Nc2ccc(CCNC[C@H](O)c3ccccc3)cc2)cs1 [Mirabegron],eye size Z-score,,-1.6
COc1ccccc1OCC(O)CO (stereo not given) [Guaifenesin],eye size Z-score,,-0.01
CC(=O)[C@H]1CC[C@H]2[C@@H]3C=CC4=CC(=O)CC[C@@]4(C)[C@@H]3CC[C@]12C [Dydrogesterone],eye size Z-score,,-0.34
CN1[C@@H]2CC[C@H]1C[C@@H](OC(=O)c1c[nH]c3ccccc13)C2 [Tropisetron hydrochloride],eye size Z-score,,-1.03
Cc1cccc(C)c1OCC(C)N (stereo not given) [Mexiletine hydrochloride],eye size Z-score,,1.2
N#Cc1cc(NC(=O)C(=O)O)c(Cl)c(NC(=O)C(=O)O)c1 [Lodoxamide],eye size Z-score,,0.96
COc1ccc(/C=C/C(=O)Nc2ccccc2C(=O)O)cc1OC [Tranilast],eye size Z-score,female,-0.94
CCOC(=O)C1=C(COCCN)NC(C)=C(C(=O)OC)C1c1ccccc1Cl (stereo not given) [Amlodipine],eye size Z-score,,-0.16
Oc1c(Cl)cc(Cl)c(Cl)c1Cc1c(O)c(Cl)cc(Cl)c1Cl [Hexachlorophene],eye size Z-score,,-0.7
Cc1c(N(C)C)c(=O)n(-c2ccccc2)n1C [Amidopyrine],eye size Z-score,,0.37
OC(CNCC(O)C1CCc2cc(F)ccc2O1)C1CCc2cc(F)ccc2O1 (stereo not given) [Nebivolol hydrochloride],eye size Z-score,,-0.27
CC(=O)NS(=O)(=O)c1ccc(NC(=O)c2ccccc2C(=O)O)cc1 [Phthalylsulfacetamide],eye size Z-score,,0.14
CC[C@H](C)[C@H](N)C1=N[C@H](C(=O)N[C@@H](CC(C)C)C(=O)N[C@H](CCC(=O)O)C(=O)N[C@H](C(=O)N[C@H]2CCCCNC(=O)[C@H](CC(N)=O)NC(=O)[C@@H](CC(=O)O)NC(=O)[C@H](Cc3cnc[nH]3)NC(=O)[C@@H](Cc3ccccc3)NC(=O)[C@H]([C@@H](C)CC)NC(=O)[C@@H](CCCN)NC2=O)[C@@H](C)CC)CS1 [Bacitracin] ({Ileψ(thiazoline)Cys}-L[dE]IK[dOrn]I[dF]H[dD]N; lactam 4-C),eye size Z-score,,-0.69

# 3 neighbouring compounds already listed, quoted:
structure (smiles),measurement,setting,value
Cc1cccc(C)c1NC(=O)CC12CCCN1CCC2 [Pilsicainide Hydrochloride],eye size Z-score,,0.5
Nc1nc2[nH]cnc2c(=S)[nH]1 [Tioguanine],eye size Z-score,,1.53
CC(C)c1cc2c(cc1S(=O)(=O)O)[C@@]1(C)CCC[C@@](C)(C(=O)O)[C@@H]1CC2 [Ecabet sodium],eye size Z-score,,0.02
